Measured values published in patent US20110195420A1, “ESTROGEN AND ANTI-ESTROGEN MARKER GENES” (Merck Patent Gesellschaft, priority 2009, published 2011).
Some results were stated once for a whole list of compounds, not compound by compound.

Tested on: Ishikawa plus cells
Experiment: Illumina global gene expression profiling in Ishikawa plus cells after 24 h EAC treatment (ANOVA, correlation, K-Means clustering)
Assay type: cell-based, human
Conditions: low dose
Method: Cells were routinely maintained in DMEM/F12 with L-Glutamine and 15 mM Hepes supplemented with 10% (v/v) FBS, 1% (v/v) penicillin (10 kU/ml)-streptomycin (10 mg/ml) solution, 0.1% (v/v) Gentamicin (50 mg/ml) and 1 mM sodium pyruvate at 37° C. and 5% CO2 in culture flasks. 5×10^5 cells were seeded onto 6-well plates in phenol-red free DMEM/F12 with L-Glutamine and 15 mM Hepes containing 10% (v/v) dextran-coated charcoal treated FBS, sodium pyruvate and antibiotics.
All experiments were performed three times with cells of passages 3-25.
After a 24 h treatment period cells were rinsed with PBS (Gibco Invitrogen, Karlsruhe, Germany), harvested and total RNA was extracted using the RNeasy Mini Kit (QIAGEN, Hilden, Germany) as described by the manufacturer, including the QIAshredder spin column procedure and on-column RNase-free DNase digestion. RNA was eluted with 40 μl of RNA-Storage solution (Ambion, Darmstadt, Germany). RNA quality control and quantification was determined using a NanoDrop® spectrophotometer (Kisker, Steinfurt, Germany) and 2100 Agilent Bio-Analyzer (Agilent Technologies, Waldbronn, Germany). […]
Data were uploaded into Genedata's Expressionist® Analyst software (Genedata AG, Basel, Switzerland) for data normalization and statistical analysis. […] After normalization fold-regulations for each individual compound treatment were calculated. […]

O=c1c(-c2ccc(O)cc2)coc2cc(O)cc(O)c12 [GEN, Genistein]
share of anti-estrogen-like up- and down-regulated genes (clusters 5 and 6) with similar expression for GEN and ZEA: more than 50%
